Some of the results follow.
compound: C1=CC(=CC=C1C2=NC3=C(N2)C=C(C=C3)C(=O)N)OC4=CC=C(C=C4)Cl; assay: log2 fold change, soluble protein after heating vs DMSO (PISA); higher = thermal stabilisation; K562 cells, 10 uM, 30 min; active = over 0.2 and 3.5 SD of the protein, either way, in both replicates (recomputed)
How it was run: (§1)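 K562 cells (2×10^6 cells/mL) were treated with 10 μM compound for 30 min, and aliquots were heated for 3 min over 48°C-58°C. Pooled aliquots were extracted in PBS with 0.5% NP-40 at 4°C, and the supernatant after 21,000xg for 90 min was measured by TMTpro 16plex LC-MS/MS with channel sums equalised. Reported thermal stability, relative to control samples and from duplicates, is a log2 fold change.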

Sequences of proteins named here, by UniProt entry; tags and fusion partners are left off. A change or cut given only in a name is not applied to a line headed by its entry.
UniProt Q01415: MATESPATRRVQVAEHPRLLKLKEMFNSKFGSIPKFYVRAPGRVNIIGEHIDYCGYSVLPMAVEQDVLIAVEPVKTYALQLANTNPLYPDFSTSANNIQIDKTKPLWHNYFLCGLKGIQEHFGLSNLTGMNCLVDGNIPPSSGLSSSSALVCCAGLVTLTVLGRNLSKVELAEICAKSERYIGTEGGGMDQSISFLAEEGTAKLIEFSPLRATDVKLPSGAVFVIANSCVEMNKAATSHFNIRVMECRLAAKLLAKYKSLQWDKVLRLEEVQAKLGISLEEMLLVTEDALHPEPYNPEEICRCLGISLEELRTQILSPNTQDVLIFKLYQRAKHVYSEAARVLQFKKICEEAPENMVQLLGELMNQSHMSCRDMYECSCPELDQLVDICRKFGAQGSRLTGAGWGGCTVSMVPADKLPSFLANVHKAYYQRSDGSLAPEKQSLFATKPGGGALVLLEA
UniProt Q9UN86: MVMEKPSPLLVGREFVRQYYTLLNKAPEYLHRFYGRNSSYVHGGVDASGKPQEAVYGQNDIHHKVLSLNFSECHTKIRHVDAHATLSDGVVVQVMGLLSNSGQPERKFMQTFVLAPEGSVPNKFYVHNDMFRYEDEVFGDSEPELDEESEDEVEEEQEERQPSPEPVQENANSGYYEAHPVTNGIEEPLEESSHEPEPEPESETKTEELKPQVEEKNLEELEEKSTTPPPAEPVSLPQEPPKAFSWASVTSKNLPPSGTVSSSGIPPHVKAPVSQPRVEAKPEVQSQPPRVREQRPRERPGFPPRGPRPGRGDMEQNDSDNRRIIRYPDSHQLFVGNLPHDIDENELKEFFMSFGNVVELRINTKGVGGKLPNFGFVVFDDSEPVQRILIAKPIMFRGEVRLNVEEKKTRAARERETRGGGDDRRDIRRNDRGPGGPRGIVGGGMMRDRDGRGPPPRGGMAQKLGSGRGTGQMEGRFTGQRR
UniProt P57678: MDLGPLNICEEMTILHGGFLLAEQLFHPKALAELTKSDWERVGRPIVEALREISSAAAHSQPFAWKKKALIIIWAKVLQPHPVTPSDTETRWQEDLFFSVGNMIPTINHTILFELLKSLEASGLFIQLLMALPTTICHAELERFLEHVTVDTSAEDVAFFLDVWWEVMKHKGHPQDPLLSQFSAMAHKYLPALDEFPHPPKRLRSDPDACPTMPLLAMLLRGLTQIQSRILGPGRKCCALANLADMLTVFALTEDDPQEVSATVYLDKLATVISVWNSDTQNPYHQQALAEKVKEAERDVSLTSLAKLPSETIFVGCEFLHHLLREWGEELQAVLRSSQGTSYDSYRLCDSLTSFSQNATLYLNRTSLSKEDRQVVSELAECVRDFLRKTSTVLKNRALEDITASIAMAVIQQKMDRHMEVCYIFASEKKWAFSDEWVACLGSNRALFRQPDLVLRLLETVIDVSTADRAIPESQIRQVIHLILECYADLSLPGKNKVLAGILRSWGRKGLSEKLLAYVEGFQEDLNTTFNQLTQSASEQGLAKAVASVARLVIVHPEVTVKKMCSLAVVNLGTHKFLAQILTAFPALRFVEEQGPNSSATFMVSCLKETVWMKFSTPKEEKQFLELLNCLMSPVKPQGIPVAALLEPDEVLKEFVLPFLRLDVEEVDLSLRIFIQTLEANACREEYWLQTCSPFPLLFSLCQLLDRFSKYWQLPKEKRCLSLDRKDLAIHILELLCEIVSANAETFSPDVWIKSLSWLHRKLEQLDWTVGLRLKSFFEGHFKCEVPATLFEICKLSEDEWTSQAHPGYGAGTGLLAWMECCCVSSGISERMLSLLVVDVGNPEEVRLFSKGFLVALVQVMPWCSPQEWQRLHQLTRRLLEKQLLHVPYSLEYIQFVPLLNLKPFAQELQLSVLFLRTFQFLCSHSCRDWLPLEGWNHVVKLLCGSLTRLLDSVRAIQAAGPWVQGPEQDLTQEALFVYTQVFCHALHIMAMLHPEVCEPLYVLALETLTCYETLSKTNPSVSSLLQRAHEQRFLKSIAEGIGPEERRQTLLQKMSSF
UniProt Q9BWH2: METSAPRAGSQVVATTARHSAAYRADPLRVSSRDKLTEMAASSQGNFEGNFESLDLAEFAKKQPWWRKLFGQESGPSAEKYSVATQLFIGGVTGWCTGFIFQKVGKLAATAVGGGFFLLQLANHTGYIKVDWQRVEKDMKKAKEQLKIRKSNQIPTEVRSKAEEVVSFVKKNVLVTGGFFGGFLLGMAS
UniProt O95749: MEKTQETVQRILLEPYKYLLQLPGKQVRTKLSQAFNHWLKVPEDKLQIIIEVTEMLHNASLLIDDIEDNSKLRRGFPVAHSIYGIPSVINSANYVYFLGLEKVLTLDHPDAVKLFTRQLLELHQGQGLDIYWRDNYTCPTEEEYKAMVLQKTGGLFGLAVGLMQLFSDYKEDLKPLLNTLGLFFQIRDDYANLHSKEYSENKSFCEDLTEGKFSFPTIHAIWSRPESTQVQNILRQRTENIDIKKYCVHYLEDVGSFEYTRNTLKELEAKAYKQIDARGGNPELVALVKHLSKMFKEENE
UniProt Q06210: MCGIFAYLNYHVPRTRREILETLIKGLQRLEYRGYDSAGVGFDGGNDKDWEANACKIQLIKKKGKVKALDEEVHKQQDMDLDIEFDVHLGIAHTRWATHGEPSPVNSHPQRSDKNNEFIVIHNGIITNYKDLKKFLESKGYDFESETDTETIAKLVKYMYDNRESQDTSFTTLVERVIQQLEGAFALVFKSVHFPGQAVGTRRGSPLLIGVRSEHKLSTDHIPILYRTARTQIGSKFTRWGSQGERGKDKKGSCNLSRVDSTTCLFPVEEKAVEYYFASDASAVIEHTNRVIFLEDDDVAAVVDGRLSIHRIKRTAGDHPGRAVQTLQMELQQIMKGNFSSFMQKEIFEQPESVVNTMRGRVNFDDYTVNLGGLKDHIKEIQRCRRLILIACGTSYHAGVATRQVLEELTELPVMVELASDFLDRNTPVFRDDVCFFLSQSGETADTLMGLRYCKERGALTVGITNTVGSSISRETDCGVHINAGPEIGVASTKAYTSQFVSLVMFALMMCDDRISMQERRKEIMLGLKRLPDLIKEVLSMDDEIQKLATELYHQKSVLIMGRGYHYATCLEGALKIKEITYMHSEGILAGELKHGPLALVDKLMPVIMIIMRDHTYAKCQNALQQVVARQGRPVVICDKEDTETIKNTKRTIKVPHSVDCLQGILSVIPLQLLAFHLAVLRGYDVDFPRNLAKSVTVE
UniProt P30047: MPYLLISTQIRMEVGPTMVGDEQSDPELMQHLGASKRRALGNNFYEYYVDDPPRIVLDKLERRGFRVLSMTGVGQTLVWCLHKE
UniProt Q9UET6: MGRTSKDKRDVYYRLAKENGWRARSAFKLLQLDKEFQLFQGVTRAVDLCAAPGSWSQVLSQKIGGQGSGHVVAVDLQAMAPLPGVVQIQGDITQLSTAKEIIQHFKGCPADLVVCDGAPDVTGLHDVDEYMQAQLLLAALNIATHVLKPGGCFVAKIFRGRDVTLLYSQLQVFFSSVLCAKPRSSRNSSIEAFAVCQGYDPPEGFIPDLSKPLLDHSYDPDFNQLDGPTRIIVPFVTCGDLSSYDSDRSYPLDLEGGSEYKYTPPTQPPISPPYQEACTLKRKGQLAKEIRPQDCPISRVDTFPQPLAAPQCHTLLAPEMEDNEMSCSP
UniProt P51116, whole entry, looked up: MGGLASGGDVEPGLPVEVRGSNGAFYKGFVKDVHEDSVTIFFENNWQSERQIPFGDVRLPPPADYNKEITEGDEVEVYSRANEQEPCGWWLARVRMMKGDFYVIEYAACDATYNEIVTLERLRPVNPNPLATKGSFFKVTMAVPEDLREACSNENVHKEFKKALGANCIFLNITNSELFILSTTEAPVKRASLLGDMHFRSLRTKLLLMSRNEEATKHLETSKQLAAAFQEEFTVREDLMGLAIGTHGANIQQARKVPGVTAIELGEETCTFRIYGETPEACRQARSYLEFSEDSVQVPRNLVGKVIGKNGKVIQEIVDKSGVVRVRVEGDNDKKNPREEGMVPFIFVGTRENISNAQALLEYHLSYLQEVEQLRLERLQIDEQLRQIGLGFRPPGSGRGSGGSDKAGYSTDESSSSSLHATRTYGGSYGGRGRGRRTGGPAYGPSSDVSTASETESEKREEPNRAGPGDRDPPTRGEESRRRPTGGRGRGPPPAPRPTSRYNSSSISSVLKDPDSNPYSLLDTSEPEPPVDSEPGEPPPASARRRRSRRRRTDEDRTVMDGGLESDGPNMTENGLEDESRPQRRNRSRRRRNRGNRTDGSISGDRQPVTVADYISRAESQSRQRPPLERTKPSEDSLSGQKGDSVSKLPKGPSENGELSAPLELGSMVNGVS
UniProt Q495W5: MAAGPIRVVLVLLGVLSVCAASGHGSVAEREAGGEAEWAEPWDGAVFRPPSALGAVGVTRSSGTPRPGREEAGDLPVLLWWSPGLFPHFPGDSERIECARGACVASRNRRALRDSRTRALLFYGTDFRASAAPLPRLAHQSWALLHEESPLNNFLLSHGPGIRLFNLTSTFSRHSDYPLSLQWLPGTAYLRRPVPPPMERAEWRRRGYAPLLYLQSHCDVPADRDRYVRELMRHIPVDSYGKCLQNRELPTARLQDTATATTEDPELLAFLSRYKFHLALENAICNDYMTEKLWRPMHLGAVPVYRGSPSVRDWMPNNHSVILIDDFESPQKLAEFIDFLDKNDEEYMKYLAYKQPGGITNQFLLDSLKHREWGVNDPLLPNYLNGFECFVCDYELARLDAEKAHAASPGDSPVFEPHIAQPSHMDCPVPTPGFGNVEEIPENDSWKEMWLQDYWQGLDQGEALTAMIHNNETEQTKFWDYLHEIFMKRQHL
UniProt Q96C23: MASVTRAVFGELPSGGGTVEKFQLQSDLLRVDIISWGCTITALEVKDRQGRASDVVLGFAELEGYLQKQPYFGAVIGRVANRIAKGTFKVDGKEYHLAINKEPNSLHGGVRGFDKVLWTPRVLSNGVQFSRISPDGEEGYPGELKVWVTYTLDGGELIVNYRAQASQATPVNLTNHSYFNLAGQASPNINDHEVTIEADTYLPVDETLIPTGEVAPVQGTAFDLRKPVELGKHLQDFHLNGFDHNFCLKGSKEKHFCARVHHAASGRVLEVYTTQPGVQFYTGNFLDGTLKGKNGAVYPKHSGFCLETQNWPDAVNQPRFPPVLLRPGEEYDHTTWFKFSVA
UniProt Q9NZ52: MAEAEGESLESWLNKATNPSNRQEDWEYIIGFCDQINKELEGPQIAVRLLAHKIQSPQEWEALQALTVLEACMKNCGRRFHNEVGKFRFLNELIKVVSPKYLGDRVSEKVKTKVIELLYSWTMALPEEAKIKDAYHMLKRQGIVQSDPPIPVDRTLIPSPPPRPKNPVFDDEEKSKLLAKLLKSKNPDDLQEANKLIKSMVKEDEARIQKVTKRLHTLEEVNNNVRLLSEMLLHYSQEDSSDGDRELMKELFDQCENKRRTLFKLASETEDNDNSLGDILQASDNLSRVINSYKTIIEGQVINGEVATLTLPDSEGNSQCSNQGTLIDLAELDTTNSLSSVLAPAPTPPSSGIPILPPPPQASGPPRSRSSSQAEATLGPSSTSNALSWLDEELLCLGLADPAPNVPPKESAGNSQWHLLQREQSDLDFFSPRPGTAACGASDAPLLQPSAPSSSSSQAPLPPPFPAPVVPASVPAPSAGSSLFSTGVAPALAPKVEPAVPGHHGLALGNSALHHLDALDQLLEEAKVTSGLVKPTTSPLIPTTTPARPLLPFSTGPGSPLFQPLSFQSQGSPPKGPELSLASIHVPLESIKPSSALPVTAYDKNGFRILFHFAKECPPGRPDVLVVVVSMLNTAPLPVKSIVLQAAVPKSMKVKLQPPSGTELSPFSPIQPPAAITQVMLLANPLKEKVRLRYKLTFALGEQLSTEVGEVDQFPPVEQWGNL
UniProt Q9H3K2: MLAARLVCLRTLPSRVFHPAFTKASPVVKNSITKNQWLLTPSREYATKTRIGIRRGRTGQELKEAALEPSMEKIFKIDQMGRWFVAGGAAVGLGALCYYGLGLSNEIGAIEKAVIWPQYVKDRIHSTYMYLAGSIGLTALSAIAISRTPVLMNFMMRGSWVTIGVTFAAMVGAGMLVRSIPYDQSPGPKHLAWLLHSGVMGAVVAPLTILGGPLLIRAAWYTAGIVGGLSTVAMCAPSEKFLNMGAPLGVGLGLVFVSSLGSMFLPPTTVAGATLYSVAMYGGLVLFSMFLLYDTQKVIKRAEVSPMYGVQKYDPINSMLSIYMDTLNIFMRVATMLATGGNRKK

log2 fold change, inactive:
GGNBP2 (UniProt Q9H3C7) 0.028, GAB1 isoform 2 (UniProt Q13480) 0.04, FPGT (UniProt O14772) 0.013, GALK2 (UniProt Q01415) 0.01, G3BP2 (UniProt Q9UN86) 0.117, GEMIN4 (UniProt P57678) -0.019, FUNDC2 (UniProt Q9BWH2) -0.02, FXN (UniProt Q16595) -0.033, FRRS1 (UniProt Q6ZNA5) 0.005, GGPS1 (UniProt O95749) 0.011, GGH (UniProt Q92820) 0.021, GFPT1 (UniProt Q06210) 0.023, GAPDH (UniProt P04406) 0.007, GCLC (UniProt P48506) 0.033, FUBP1 (UniProt Q96AE4) 0.116, GCHFR (UniProt P30047) 0.079, GART (UniProt C9JZG2) -0.087, GALNT6 (UniProt Q8NCL4) 0.029, FTSJ1 (UniProt Q9UET6) 0.127, G3BP1 (UniProt Q13283) 0.013, GANAB isoform 2 (UniProt Q14697) -0.01, FSCN1 (UniProt Q16658) -0.01, FXR2 (UniProt P51116) -0.036, FUT11 (UniProt Q495W5) 0.04, FYCO1 isoform 4 (UniProt Q9BQS8) 0.006, GFM1 (UniProt Q96RP9) -0.035, GALM (UniProt Q96C23) 0.026, FTH1 (UniProt P02794) 0.102, GGCX (UniProt P38435) -0.011, GGA3 (UniProt Q9NZ52) 0.093, FRG1 (UniProt Q14331) 0.028, GHITM (UniProt Q9H3K2) 0.013, GFER (UniProt P55789) 0.059

compound: C1=CC2=C(C=CC(=C2)/C=C\3/C(=O)NC(=NCC4=CC=CS4)S3)N=C1; assay: as above
How it was run: as §1

log2 fold change, inactive:
GGNBP2 (UniProt Q9H3C7) 0.033, GAB1 isoform 2 (UniProt Q13480) 0.05, FPGT (UniProt O14772) 0.043, GALK2 (UniProt Q01415) 0.027, G3BP2 (UniProt Q9UN86) -0.043, GEMIN4 (UniProt P57678) -0.152, FUNDC2 (UniProt Q9BWH2) -0.015, FXN (UniProt Q16595) 0.057, FRRS1 (UniProt Q6ZNA5) -0.056, GGPS1 (UniProt O95749) 0.003, GGH (UniProt Q92820) -0.031, GFPT1 (UniProt Q06210) 0.012, GAPDH (UniProt P04406) -0.085, GCLC (UniProt P48506) 0.017, FUBP1 (UniProt Q96AE4) -0.072, GCHFR (UniProt P30047) -0.055, GART (UniProt C9JZG2) 0.289, GALNT6 (UniProt Q8NCL4) 0.114, FTSJ1 (UniProt Q9UET6) -0.018, G3BP1 (UniProt Q13283) -0.042, GANAB isoform 2 (UniProt Q14697) -0.025, FSCN1 (UniProt Q16658) -0.058, FXR2 (UniProt P51116) 0.185, FUT11 (UniProt Q495W5) -0.175, FYCO1 isoform 4 (UniProt Q9BQS8) 0, GFM1 (UniProt Q96RP9) 0.056, GALM (UniProt Q96C23) 0.035, FTH1 (UniProt P02794) -0.036, GGCX (UniProt P38435) 0.024, GGA3 (UniProt Q9NZ52) 0.021, FRG1 (UniProt Q14331) 0.043, GHITM (UniProt Q9H3K2) -0.006, GFER (UniProt P55789) -0.133

compound: C1=CC2=NC=CN=C2C=C1/C=C/3\C(=O)NC(=O)S3; assay: as above
How it was run: as §1

log2 fold change, inactive:
GGNBP2 (UniProt Q9H3C7) -0.017, GAB1 isoform 2 (UniProt Q13480) -0.044, FPGT (UniProt O14772) 0.001, GALK2 (UniProt Q01415) 0.008, G3BP2 (UniProt Q9UN86) 0.033, GEMIN4 (UniProt P57678) -0.034, FUNDC2 (UniProt Q9BWH2) 0.021, FXN (UniProt Q16595) 0.024, FRRS1 (UniProt Q6ZNA5) 0.028, GGPS1 (UniProt O95749) 0.039, GGH (UniProt Q92820) -0.052, GFPT1 (UniProt Q06210) -0.064, GAPDH (UniProt P04406) -0.02, GCLC (UniProt P48506) -0.031, FUBP1 (UniProt Q96AE4) 0.144, GCHFR (UniProt P30047) 0.018, GART (UniProt C9JZG2) 0.077, GALNT6 (UniProt Q8NCL4) 0.064, FTSJ1 (UniProt Q9UET6) 0.006, G3BP1 (UniProt Q13283) -0.031, GANAB isoform 2 (UniProt Q14697) -0.017, FSCN1 (UniProt Q16658) 0.008, FXR2 (UniProt P51116) -0.047, FUT11 (UniProt Q495W5) -0.022, FYCO1 isoform 4 (UniProt Q9BQS8) -0.03, GFM1 (UniProt Q96RP9) -0.047, GALM (UniProt Q96C23) -0.017, FTH1 (UniProt P02794) 0.074, GGCX (UniProt P38435) -0.067, GGA3 (UniProt Q9NZ52) 0.037, FRG1 (UniProt Q14331) 0.022, GHITM (UniProt Q9H3K2) 0.033, GFER (UniProt P55789) 0.021

Reference: the supplement of paper PMC10849652
